# PubChem BioAssay AID1259424 – University of Nebraska Medical Center – 2018
# Screen: 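Seek colon cancer survival genes behaving like KSR1, using a six-gene signature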 (primary screen)
# System: human HCT116 colon cancer cells
# Reagent: siRNA pool against human genes, 50 nM
# Read-out: 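Log2 levels of six mRNAs (branched-DNA multiplex), adjusted by two reference genes and the non-targeting median, then scored against the average KSR1 knockdown pattern as Pearson r and euclidean distance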
# Reading the numbers: mean correlation with KSR1 profile and KSR1 correlation: higher = expression change more like KSR1 knockdown; mean distance from KSR1 profile: higher = expression change less like KSR1 knockdown
# The whole screen tested about 14,000 reagents; shown is a random part of them. 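Higher correlation or smaller distance means closer resemblance to KSR1 loss; control wells, including KSR1 knockdowns, recur on many plates.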 Not stated in the record: the time to read-out.
gene,mean correlation with KSR1 profile,mean distance from KSR1 profile,"KSR1 correlation, replicate 1","KSR1 correlation, replicate 2","KSR1 correlation, replicate 3"
LAMTOR3,-0.758,2.64,-0.733,-0.703,-0.682
SENP7,-0.277,3.7,-0.276,-0.455,-0.242
MS4A3,0.39,2.44,0.427,0.323,0.303
IRF2BP1,-0.727,2.33,-0.611,-0.608,-0.901
TMEM131L,-0.478,1.3,-0.424,-0.469,-0.466
ATG7,-0.0283,2.14,0.0516,-0.178,-0.0835
HLTF,0.33,0.974,0.0952,0.252,0.459
NDFIP1,0.269,1.91,0.117,0.21,0.274
ABRAXAS1,0.294,1.73,0.159,0.2,0.365
NPEPPS,0.636,1.52,0.619,0.603,0.63
TMEM59L,-0.216,3.39,-0.109,-0.302,-0.173
NLN,0.0311,2.76,-0.149,0.0898,-0.00949
SLAMF7,-0.467,1.74,-0.664,-0.164,-0.243
SLC25A22,0.121,4.29,0.291,0.301,-0.204
ARHGEF11,0.55,1.28,0.442,0.637,0.643
TMEM254,0.2,2.24,-0.149,0.283,0.161
NPAT,0.328,1.04,0.579,0.744,-0.057
WIPI2,-0.289,1.98,0.0443,-0.264,-0.509
AP2A2,-0.257,3.17,-0.18,-0.209,-0.507
PSMA2,-0.0558,2.5,0.054,-0.201,0.0438
SYT13,-0.757,1.89,-0.656,-0.817,-0.789
KIAA1586,-0.255,2.04,-0.474,-0.0367,-0.202
IPO7,-0.491,1.99,-0.655,-0.456,-0.348
MRPL20,0.388,1.56,0.357,0.374,0.512
PSME4,-0.684,1.61,-0.765,-0.497,-0.736
PI4KB,0.188,3.04,0.226,0.229,0.338
UTY,0.205,2.05,0.0759,-0.000676,0.728
HSPA14,0.443,2.54,0.494,0.413,0.428
FAIM,-0.27,2.12,-0.584,-0.283,-0.14
LINC01949,-0.377,3.01,-0.177,-0.683,-0.397
TLR10,-0.0961,2.27,-0.0623,-0.252,-0.156
PCDHB15,0.0646,2.11,0.252,0.12,-0.308
TAAR8,0.909,0.637,0.868,0.924,0.826

Laid out differently: results already given.
gene	mean correlation with KSR1 profile	mean distance from KSR1 profile	KSR1 correlation, replicate 1	KSR1 correlation, replicate 2	KSR1 correlation, replicate 3
ABRAXAS1	0.294	1.73	0.159	0.2	0.365
NPEPPS	0.636	1.52	0.619	0.603	0.63
TMEM59L	-0.216	3.39	-0.109	-0.302	-0.173
NLN	0.0311	2.76	-0.149	0.0898	-0.00949
SLAMF7	-0.467	1.74	-0.664	-0.164	-0.243
SLC25A22	0.121	4.29	0.291	0.301	-0.204
ARHGEF11	0.55	1.28	0.442	0.637	0.643
TMEM254	0.2	2.24	-0.149	0.283	0.161

Next reagents:
gene,mean correlation with KSR1 profile,mean distance from KSR1 profile,"KSR1 correlation, replicate 1","KSR1 correlation, replicate 2","KSR1 correlation, replicate 3"
UBE2D1,-0.296,1.61,-0.338,-0.416,-0.004
TONSL,0.225,1.26,0.783,0.454,-0.197
YARS2,-0.165,3.16,-0.447,-0.208,-0.431
NGFR,0.323,2.11,0.338,0.302,0.278
MTNAP1,-0.577,2.3,-0.296,-0.792,-0.568
DYNC1I1,0.601,1.23,0.634,0.628,0.331
WDR41,-0.586,1.84,-0.276,-0.734,-0.746
LRRC61,0.8,1.31,0.799,0.388,0.764
FABP4,0.611,1.3,0.814,0.67,0.193
POU2F1,0.219,2.45,0.365,0.507,0.0421
MYLK3,-0.463,4.24,-0.298,-0.44,-0.587
GIPR,0.706,1.34,0.706,0.727,0.562
SRP72,-0.574,3,-0.351,-0.752,-0.434
PKNOX2,-0.298,3.31,-0.436,-0.248,-0.333
BSPRY,-0.529,3.05,-0.523,-0.588,-0.629
ZC3H8,0.641,1.66,0.649,0.379,0.419
RBM23,-0.0635,3.36,-0.058,-0.178,-0.19
